Measured data: PubChem BioAssay AID1508597 (Cure First, 2020)
Shown is a random part of the about 2,100 reagents, in one setting of the screen. 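Calls flag viability under 80% in either arm, not effects specific to rucaparib; the reference for percent is not stated.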 Entries without a mark were called inactive. Some reagents were tested in more than one well and are listed for each. Not stated in the record: the 100% reference.

Aim: 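Genes whose silencing sensitises or protects ovarian cancer cells against rucaparib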 (primary screen)
System: human ovarian carcinoma lines grown from tumours: OCI-P5x (papillary serous) and OCI-C5x (clear cell)
Knock-down reagent: siRNA pool against human genes, 1.25 pmol siRNA per well
Time to read-out: 72 h or 96 h, depending on the cell culture
Challenge: rucaparib 20 µM (about IC30) or vehicle, present until read-out
Rucaparib or vehicle: Rucaparib
Cell line: OCI-P5x (serous)
Measured: 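ATP luminescence measured at 72 or 96 h according to the culture, then normalised and expressed as percent viability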
Scale: viability, normalised: higher = more viable cells remaining
Rule for the call: 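a well counts as a hit if its normalised viability is under 80 percent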
Meaning of the calls: active = viability under 80%; inactive = viability 80% or more

| Target gene | technical replicate | viability, normalised (%) |
| --- | --- | --- |
| APOE (GeneID 348) | 1 | 72.5 (active) |
| APOE (GeneID 348) | 2 | 91.2 |
| APOE (GeneID 348) | 3 | 76.2 (active) |
| RIOX2 (GeneID 84864) | 1 | 55.6 (active) |
| RIOX2 (GeneID 84864) | 2 | 68.4 (active) |
| RIOX2 (GeneID 84864) | 3 | 72.9 (active) |
| MBD5 (GeneID 55777) | 1 | 47.1 (active) |
| MBD5 (GeneID 55777) | 2 | 49.4 (active) |
| MBD5 (GeneID 55777) | 3 | 55.5 (active) |
| VAX2 (GeneID 25806) | 1 | 87.6 |
| VAX2 (GeneID 25806) | 2 | 70.9 (active) |
| VAX2 (GeneID 25806) | 3 | 77.1 (active) |
| RNF40 (GeneID 9810) | 1 | 41.7 (active) |
| RNF40 (GeneID 9810) | 2 | 32.7 (active) |
| RNF40 (GeneID 9810) | 3 | 43.4 (active) |
| PIN1 (GeneID 5300) | 1 | 78.8 (active) |
| PIN1 (GeneID 5300) | 2 | 73.9 (active) |
| PIN1 (GeneID 5300) | 3 | 73.6 (active) |
| EP400 (GeneID 57634) | 1 | 62.2 (active) |
| EP400 (GeneID 57634) | 2 | 65.1 (active) |
| EP400 (GeneID 57634) | 3 | 69 (active) |
| GSK3A (GeneID 2931) | 1 | 102 |
| GSK3A (GeneID 2931) | 1 | 61.2 (active) |
| GSK3A (GeneID 2931) | 2 | 63.7 (active) |
| GSK3A (GeneID 2931) | 2 | 110 |
| GSK3A (GeneID 2931) | 3 | 89.7 |
| GSK3A (GeneID 2931) | 3 | 68.2 (active) |
| PDE4A (GeneID 5141) | 1 | 55.6 (active) |
| PDE4A (GeneID 5141) | 2 | 63.3 (active) |
| PDE4A (GeneID 5141) | 3 | 55.5 (active) |
| DMPK (GeneID 1760) | 1 | 71.4 (active) |
| DMPK (GeneID 1760) | 2 | 70.1 (active) |
| DMPK (GeneID 1760) | 3 | 69.8 (active) |
| ITGA4 (GeneID 3676) | 1 | 38 (active) |
| ITGA4 (GeneID 3676) | 2 | 37.6 (active) |
| ITGA4 (GeneID 3676) | 3 | 42.7 (active) |
| XRCC3 (GeneID 7517) | 1 | 92 |
| XRCC3 (GeneID 7517) | 2 | 64.6 (active) |
| XRCC3 (GeneID 7517) | 3 | 79.7 (active) |
| TRMT112 (GeneID 51504) | 1 | 64.8 (active) |
| TRMT112 (GeneID 51504) | 2 | 67.7 (active) |
| TRMT112 (GeneID 51504) | 3 | 69 (active) |
| AIFM2 (GeneID 84883) | 1 | 72.7 (active) |
| AIFM2 (GeneID 84883) | 2 | 72 (active) |
| AIFM2 (GeneID 84883) | 3 | 77.5 (active) |
| PI4K2A (GeneID 55361) | 1 | 81.7 |
| PI4K2A (GeneID 55361) | 2 | 103 |
| PI4K2A (GeneID 55361) | 3 | 65.5 (active) |
| SCAF11 (GeneID 9169) | 1 | 49 (active) |
| SCAF11 (GeneID 9169) | 2 | 46.3 (active) |
| SCAF11 (GeneID 9169) | 3 | 56.3 (active) |
| PIM2 (GeneID 11040) | 1 | 76.6 (active) |
| PIM2 (GeneID 11040) | 2 | 72.4 (active) |
| PIM2 (GeneID 11040) | 3 | 60.4 (active) |
| DTYMK (GeneID 1841) | 1 | 80.5 |
| DTYMK (GeneID 1841) | 2 | 105 |
| DTYMK (GeneID 1841) | 3 | 99.5 |
| ROCK2 (GeneID 9475) | 1 | 74.3 (active) |
| ROCK2 (GeneID 9475) | 2 | 105 |
| ROCK2 (GeneID 9475) | 3 | 81.9 |
| MIS18BP1 (GeneID 55320) | 1 | 76.2 (active) |
| MIS18BP1 (GeneID 55320) | 2 | 85.2 |
| MIS18BP1 (GeneID 55320) | 3 | 82.5 |
| RBBP8 (GeneID 5932) | 1 | 41.3 (active) |
| RBBP8 (GeneID 5932) | 1 | 62.9 (active) |
| RBBP8 (GeneID 5932) | 2 | 47.5 (active) |
| RBBP8 (GeneID 5932) | 2 | 51 (active) |
| RBBP8 (GeneID 5932) | 3 | 48.4 (active) |
| RBBP8 (GeneID 5932) | 3 | 44.2 (active) |
| ASF1A (GeneID 25842) | 1 | 72.8 (active) |
| ASF1A (GeneID 25842) | 2 | 96 |
| ASF1A (GeneID 25842) | 3 | 88.5 |
| TERF1 (GeneID 7013) | 1 | 66.7 (active) |
| TERF1 (GeneID 7013) | 1 | 63.2 (active) |
| TERF1 (GeneID 7013) | 2 | 58.4 (active) |
| TERF1 (GeneID 7013) | 2 | 80.9 |
| TERF1 (GeneID 7013) | 3 | 52.4 (active) |
| TERF1 (GeneID 7013) | 3 | 52.7 (active) |

Part of the list above in another layout:
{"Target gene":"MIS18BP1 (GeneID 55320)","technical replicate":"3","viability, normalised (%)":82.5}
{"Target gene":"RBBP8 (GeneID 5932)","technical replicate":"1","viability, normalised (%)":"41.3 (active)"}
{"Target gene":"RBBP8 (GeneID 5932)","technical replicate":"1","viability, normalised (%)":"62.9 (active)"}
{"Target gene":"RBBP8 (GeneID 5932)","technical replicate":"2","viability, normalised (%)":"47.5 (active)"}
{"Target gene":"RBBP8 (GeneID 5932)","technical replicate":"2","viability, normalised (%)":"51 (active)"}
{"Target gene":"RBBP8 (GeneID 5932)","technical replicate":"3","viability, normalised (%)":"48.4 (active)"}
